Measured values published in the supplement of paper PMC8728848.
This is one part of the list.

Assays:
Experiment in all cases: glycan array binding signal (z-score within array); higher = stronger binding
Settings in all cases: glycan notation: IUPAC condensed, linker removed
[1] = biological target: Fuc(a1-2)Gal
Procedure, shortened: (§1)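 The binding signal is a Z-score computed within each array and averaged over linkers. Arrays of the same protein sequence at different concentrations or buffers were also averaged together. Data originate from 3228 arrays in the Consortium for Functional Glycomics database, kept only where the protein sequence was available.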

[2] = biological target: Fuc(a1-2)Gal(b1-3)GalNAc
Procedure, shortened: as §1

[3] = biological target: Fuc(a1-2)Gal(b1-3)GalNAc(a1-3)[Fuc(a1-2)]Gal(b1-4)Glc
Procedure, shortened: as §1

[4] = biological target: Fuc(a1-2)Gal(b1-3)GalNAc(a1-3)[Fuc(a1-2)]Gal(b1-4)GlcNAc
Procedure, shortened: as §1

[5] = biological target: Fuc(a1-2)Gal(b1-3)GalNAc(b1-3)Gal
Procedure, shortened: as §1

[6] = biological target: Fuc(a1-2)Gal(b1-3)GalNAc(b1-3)Gal(a1-4)Gal(b1-4)Glc
Procedure, shortened: as §1

[7] = biological target: Fuc(a1-2)Gal(b1-3)GalNAc(b1-4)[Neu5Ac(a2-3)]Gal(b1-4)Glc
Procedure, shortened: as §1

[8] = biological target: Fuc(a1-2)Gal(b1-3)GlcNAc
Procedure, shortened: as §1

[9] = biological target: Fuc(a1-2)Gal(b1-3)GlcNAc(b1-2)Man(a1-3)[Fuc(a1-2)Gal(b1-3)GlcNAc(b1-2)Man(a1-6)]Man(b1-4)GlcNAc(b1-4)GlcNAc
Procedure, shortened: as §1

[10] = biological target: Fuc(a1-2)Gal(b1-3)GlcNAc(b1-2)Man(a1-3)[Fuc(a1-2)Gal(b1-3)GlcNAc(b1-2)Man(a1-6)]Man(b1-4)GlcNAc(b1-4)[Fuc(a1-6)]GlcNAc
Procedure, shortened: as §1

[11] = biological target: Fuc(a1-2)Gal(b1-3)GlcNAc(b1-3)Gal(b1-4)Glc
Procedure, shortened: as §1

[12] = biological target: Fuc(a1-2)Gal(b1-3)GlcNAc(b1-3)GalNAc
Procedure, shortened: as §1

[13] = biological target: Fuc(a1-2)Gal(b1-3)GlcNAc(b1-3)[Fuc(a1-2)Gal(b1-3)GlcNAc(b1-6)]GalNAc
Procedure, shortened: as §1

[14] = biological target: Fuc(a1-2)Gal(b1-3)GlcNAc(b1-3)[Gal(b1-4)GlcNAc(b1-6)]Gal(b1-4)Glc
Procedure, shortened: as §1

[15] = biological target: Fuc(a1-2)Gal(b1-3)GlcNAc(b1-3)[Neu5Ac(a2-6)Gal(b1-4)GlcNAc(b1-6)]Gal(b1-4)Glc
Procedure, shortened: as §1

[16] = biological target: Fuc(a1-2)Gal(b1-3)GlcNAc6S
Procedure, shortened: as §1

[17] = biological target: Fuc(a1-2)Gal(b1-3)[Fuc(a1-4)]GlcNAc
Procedure, shortened: as §1

[18] = biological target: Fuc(a1-2)Gal(b1-3)[Fuc(a1-4)]GlcNAc(b1-2)Man(a1-3)[Fuc(a1-2)Gal(b1-3)[Fuc(a1-4)]GlcNAc(b1-2)Man(a1-3)]Man(b1-4)GlcNAc(b1-4)GlcNAc
Procedure, shortened: as §1

[19] = biological target: Fuc(a1-2)Gal(b1-3)[Fuc(a1-4)]GlcNAc(b1-2)Man(a1-3)[Fuc(a1-2)Gal(b1-3)[Fuc(a1-4)]GlcNAc(b1-2)Man(a1-6)]Man(b1-4)GlcNAc(b1-4)[Fuc(a1-6)]GlcNAc(b1-4)[Fuc(a1-6)]GlcNAc
Procedure, shortened: as §1

[20] = biological target: Fuc(a1-2)Gal(b1-3)[Fuc(a1-4)]GlcNAc(b1-3)[Fuc(a1-3)[Gal(b1-4)]GlcNAc(b1-6)]Gal(b1-4)Glc
Procedure, shortened: as §1

[21] = biological target: Fuc(a1-2)Gal(b1-3)[Fuc(a1-4)]GlcNAc(b1-3)[Gal(b1-4)GlcNAc(b1-6)]Gal(b1-4)Glc
Procedure, shortened: as §1

[22] = biological target: Fuc(a1-2)Gal(b1-4)Fuc(a1-3)]GlcNAc(b1-2)Man(a1-3)[Fuc(a1-2)Gal(b1-4)[Fuc(a1-3)]GlcNAc(b1-2)Man(a1-6)]Man(b1-4)GlcNAc(b1-4)GlcNAc
Procedure, shortened: as §1

[23] = biological target: Fuc(a1-2)Gal(b1-4)Glc
Procedure, shortened: as §1

[24] = biological target: Fuc(a1-2)Gal(b1-4)Glc6S
Procedure, shortened: as §1

[25] = biological target: Fuc(a1-2)Gal(b1-4)GlcNAc
Procedure, shortened: as §1

[26] = biological target: Fuc(a1-2)Gal(b1-4)GlcNAc(b1-2)Man
Procedure, shortened: as §1

[27] = biological target: Fuc(a1-2)Gal(b1-4)GlcNAc(b1-2)Man(a1-3)[Fuc(a1-2)Gal(b1-4)GlcNAc(b1-2)Man(a1-6)]Man(b1-4)GlcNAc(b1-4)GlcNAc
Procedure, shortened: as §1

[28] = biological target: Fuc(a1-2)Gal(b1-4)GlcNAc(b1-2)Man(a1-3)[Fuc(a1-2)Gal(b1-4)GlcNAc(b1-2)Man(a1-6)]Man(b1-4)GlcNAc(b1-4)[Fuc(a1-6)]GlcNAc
Procedure, shortened: as §1

[29] = biological target: Fuc(a1-2)Gal(b1-4)GlcNAc(b1-2)[Fuc(a1-2)Gal(b1-4)GlcNAc(b1-4)]Man(a1-3)[Fuc(a1-2)Gal(b1-4)GlcNAc(b1-2)Man(a1-6)]Man(b1-4)GlcNAc(b1-4)GlcNAc
Procedure, shortened: as §1

[30] = biological target: Fuc(a1-2)Gal(b1-4)GlcNAc(b1-3)Gal(b1-4)GlcNAc
Procedure, shortened: as §1

B1: Endo180d1-D4 (Homo sapiens), Q9UBG0 (protein)
chain: MGPGRPAPAPWPRHLLRCVLLLGCLHLGRPGAPGDAALPEPNVFLIFSHGLQGCLEAQGGQVRVTPACNTSLPAQRWKWVSRNRLFNLGTMQCLGTGWPGTNTTASLGMYECDREALNLRWHCRTLGDQLSLLLGARTSNISKPGTLERGDQTRSGQWRIYGSEEDLCALPYHEVYTIQGNSHGKPCTIPFKYDNQWFHGCTSTGREDGHLWCATTQDYGKDERWGFCPIKSNDCETFWDKDQLTDSCYQFNFQSTLSWREAWASCEQQGADLLSITEIHEQTYINGLLTGYSSTLWIGLNDLDTSGGWQWSDNSPLKYLNWESDQPDNPSEENCGVIRTESSGGWQNRDCSIALPYVCKKKPNATAEPTPPDRWANVKVECEPSWQPFQGHCYRLQAEKRSWQESKKACLRGGGDLVSIHSMAELEFITKQIKQEVEELWIGLNDLKLQMNFEWSDGSLVSFTHWHPFEPNNFRDSLEDCVTIWGPEGRWNDSPCNQSLPSICKKAGQLSQGAAEEDHGCRKGWTWHSPSCYWLGEDQVTYSEARRLCTDHGSQLVTITNRFEQAFVSSLIYNWEGEYFWTALQDLNSTGSFFWLSGDEVMYTHWNRDQPGYSRGGCVALATGSAMGLWEVKNCTSFRARYICRQSLGTPVTPELPGPDPTPSLTGSCPQGWASDTKLRYCYKVFSSERLQDKKSWVQAQGACQELGAQLLSLASYEEEHFVANMLNKIFGESEPEIHEQHWFWIGLNRRDPRGGQSWRWSDGVGFSYHNFDRSRHDDDDIRGCAVLDLASLQWVAMQCDTQLDWICKIPRGTDVREPDDSPQGRREWLRFQEAEYKFFEHHSTWAQAQRICTWFQAELTSVHSQAELDFLSHNLQKFSRAQEQHWWIGLHTSESDGRFRWTDGSIINFISWAPGKPRPVGKDKKCVYMTASREDWGDQRCLTALPYICKRSNVTKETQPPDLPTTALGGCPSDWIQFLNKCFQVQGQEPQSRVKWSEAQFSCEQQEAQLVTITNPLEQAFITASLPNVTFDLWIGLHASQRDFQWVEQEPLMYANWAPGEPSGPSPAPSGNKPTSCAVVLHSPSAHFTGRWDDRSCTEETHGFICQKGTDPSLSPSPAALPPAPGTELSYLNGTFRLLQKPLRWHDALLLCESHNASLAYVPDPYTQAFLTQAARGLRTPLWIGLAGEEGSRRYSWVSEEPLNYVGWQDGEPQQPGGCTYVDVDGAWRTTSCDTKLQGAVCGVSSGPPPPRRISYHGSCPQGLADSAWIPFREHCYSFHMELLLGHKEARQRCQRAGGAVLSILDEMENVFVWEHLQSYEGQSRGAWLGMNFNPKGGTLVWQDNTAVNYSNWGPPGLGPSMLSHNSCYWIQSNSGLWRPGACTNITMGVVCKLPRAEQSSFSPSALPENPAALVVVLMAVLLLLALLTAALILYRRRQSIERGAFEGARYSRSSSSPTEATEKNILVSDMEMNEQQE
With B1 the “glycan array binding signal (z-score)” value [1] was 0.059, the “glycan array binding signal (z-score)” value [2] was -0.511 and the “glycan array binding signal (z-score)” value [3] was 0.755. For the same binder, the “glycan array binding signal (z-score)” value [4] was -0.616, the “glycan array binding signal (z-score)” value [5] was 0.078 and the “glycan array binding signal (z-score)” value [6] was -0.159. The “glycan array binding signal (z-score)” value [7] was -0.109, the “glycan array binding signal (z-score)” value [8] was 0.974 and the “glycan array binding signal (z-score)” value [9] was 0.403. For the same binder, the “glycan array binding signal (z-score)” value [10] was -0.446, the “glycan array binding signal (z-score)” value [11] was -0.333 and the “glycan array binding signal (z-score)” value [12] was -0.507. For the same binder, the “glycan array binding signal (z-score)” value [13] was 0.368, the “glycan array binding signal (z-score)” value [14] was -0.323 and the “glycan array binding signal (z-score)” value [15] was 0.005. The “glycan array binding signal (z-score)” value [16] was 1.24, the “glycan array binding signal (z-score)” value [17] was 0.276 and the “glycan array binding signal (z-score)” value [18] was 0.451. For the same binder, the “glycan array binding signal (z-score)” value [19] was -0.37, the “glycan array binding signal (z-score)” value [20] was -1.06 and the “glycan array binding signal (z-score)” value [21] was -0.341. For the same binder, the “glycan array binding signal (z-score)” value [22] was 4.92, the “glycan array binding signal (z-score)” value [23] was -0.398 and the “glycan array binding signal (z-score)” value [24] was -0.741. For the same binder, the “glycan array binding signal (z-score)” value [25] was -0.365, the “glycan array binding signal (z-score)” value [26] was -0.187 and the “glycan array binding signal (z-score)” value [27] was -0.976. For the same binder, the “glycan array binding signal (z-score)” value [28] was 0.245, the “glycan array binding signal (z-score)” value [29] was -0.638 and the “glycan array binding signal (z-score)” value [30] was -0.377.
